For at least one entry, the source does not settle the construct or the ends of the probe. At least one verdict rests on a figure or table, not on a statement of the authors. Protein sequences can lack the tags named with them.

The data set relates to T1, TIA-1 RRM23.
T1 sequence (looked up, limits assumed): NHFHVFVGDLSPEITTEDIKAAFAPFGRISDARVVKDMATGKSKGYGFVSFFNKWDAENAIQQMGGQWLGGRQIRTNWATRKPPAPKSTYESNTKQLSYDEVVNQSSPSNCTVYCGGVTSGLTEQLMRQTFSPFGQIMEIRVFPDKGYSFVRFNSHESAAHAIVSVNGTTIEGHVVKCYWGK
The data set can be described thus: fluorescence anisotropy. Particulars: no arginine, 50 mM NaCl, KD not in text; FA: 1 nM Fl-TC1; RRM23 in 10 mM HEPES pH 7.2, 50 mM NaCl, 1 mM DTT (legend: 20 mM HEPES); full-length TIA-1 in 20 mM sodium phosphate, 60 mM KCl, 0.5 M arginine-HCl; recombinant protein; label: 5'-fluorescein; single-stranded DNA. For orientation: Polarisation of emitted light reports the rotation of a fluorescent probe.

Take TTTTTACTCC [TC1 (5'-fluorescein)]: the binding result is “binds”.

The values above are taken from PMC7969032, “Tandem RNA binding sites induce self-association of the stress granule marker protein TIA-1”.
